Where a name gives a salt, the structure may show the parent alone. The list shows a part of the results. Hit calls seldom repeat between salt and free forms of one compound.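 Kinases, fused to nanoluciferase, were expressed in K562 cells; luminescence was measured every 4 h from 2 to 18 h as percent of control (DMSO = 100%, positive control = 0%). A time point is decreased if signal falls significantly (2 sigma). Hits were called by the authors by a rule that is not shown; the count of time points alone does not decide it.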
Key:
Assay in all cases: number of time points (of 5) at which kinase-Nluc abundance scored as decreased, DMSO-normalised (count); higher = more persistent destabilization
Conditions in all cases: K562; 2-18 h
[1] = target: FLT3 (UniProt P36888)
[2] = target: FYN (UniProt P06241)
[3] = target: GSK3A (UniProt P49840)
[4] = target: HER2 (UniProt P04626)
[5] = target: INSRR (UniProt P14616)
[6] = target: IRAK3 (UniProt Q9Y616)
[7] = target: JAK1 (UniProt P23458)
[8] = target: LCK (UniProt P06239)
[9] = target: LIMK1 (UniProt P53667)
[10] = target: LIMK2 (UniProt P53671)
[11] = target: LMTK2 (UniProt Q8IWU2)
[12] = target: LYN (UniProt P07948)
[13] = target: MAP2K1 (UniProt Q02750)
[14] = target: MAP2K2 (UniProt P36507)
[15] = target: MAP4K2 (UniProt Q12851)
[16] = target: MAPK1 (UniProt P28482)
[17] = target: MAPK4 (UniProt P31152)
[18] = target: MAPKAPK2 (UniProt P49137)
[19] = target: MKNK1 (UniProt Q9BUB5)
[20] = target: NTRK2 (UniProt Q16620)

Sequences of proteins named here, by UniProt entry; tags and fusion partners are left off. A change or cut given only in a name is not applied to a line headed by its entry.
UniProt P06241, whole entry, looked up: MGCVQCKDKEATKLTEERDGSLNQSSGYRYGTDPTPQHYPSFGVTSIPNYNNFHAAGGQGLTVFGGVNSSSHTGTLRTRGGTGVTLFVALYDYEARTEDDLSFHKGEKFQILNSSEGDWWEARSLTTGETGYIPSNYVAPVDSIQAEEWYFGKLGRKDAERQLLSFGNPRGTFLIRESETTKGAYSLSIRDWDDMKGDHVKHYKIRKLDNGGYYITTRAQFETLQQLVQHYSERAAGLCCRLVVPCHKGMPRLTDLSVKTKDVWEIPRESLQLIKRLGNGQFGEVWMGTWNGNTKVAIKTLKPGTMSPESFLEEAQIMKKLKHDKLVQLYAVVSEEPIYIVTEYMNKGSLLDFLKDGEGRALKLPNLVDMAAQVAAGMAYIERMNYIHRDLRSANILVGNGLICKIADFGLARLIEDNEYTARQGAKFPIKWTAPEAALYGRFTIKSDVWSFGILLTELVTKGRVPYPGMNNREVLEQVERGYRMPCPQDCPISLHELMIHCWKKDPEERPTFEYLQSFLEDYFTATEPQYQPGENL
UniProt P49840: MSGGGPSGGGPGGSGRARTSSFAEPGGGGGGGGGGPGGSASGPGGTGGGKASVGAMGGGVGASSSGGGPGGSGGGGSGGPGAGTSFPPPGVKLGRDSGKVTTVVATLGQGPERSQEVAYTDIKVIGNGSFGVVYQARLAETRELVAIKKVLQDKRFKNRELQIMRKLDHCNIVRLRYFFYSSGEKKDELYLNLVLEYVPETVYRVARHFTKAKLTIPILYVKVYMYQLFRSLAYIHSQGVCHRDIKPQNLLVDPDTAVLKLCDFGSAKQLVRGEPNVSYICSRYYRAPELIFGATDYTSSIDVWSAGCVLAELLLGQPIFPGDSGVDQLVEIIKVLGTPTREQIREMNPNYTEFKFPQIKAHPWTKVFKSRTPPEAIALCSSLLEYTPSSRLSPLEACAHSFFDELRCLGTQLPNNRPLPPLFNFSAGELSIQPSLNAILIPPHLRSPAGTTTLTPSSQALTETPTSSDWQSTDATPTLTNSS
UniProt P14616: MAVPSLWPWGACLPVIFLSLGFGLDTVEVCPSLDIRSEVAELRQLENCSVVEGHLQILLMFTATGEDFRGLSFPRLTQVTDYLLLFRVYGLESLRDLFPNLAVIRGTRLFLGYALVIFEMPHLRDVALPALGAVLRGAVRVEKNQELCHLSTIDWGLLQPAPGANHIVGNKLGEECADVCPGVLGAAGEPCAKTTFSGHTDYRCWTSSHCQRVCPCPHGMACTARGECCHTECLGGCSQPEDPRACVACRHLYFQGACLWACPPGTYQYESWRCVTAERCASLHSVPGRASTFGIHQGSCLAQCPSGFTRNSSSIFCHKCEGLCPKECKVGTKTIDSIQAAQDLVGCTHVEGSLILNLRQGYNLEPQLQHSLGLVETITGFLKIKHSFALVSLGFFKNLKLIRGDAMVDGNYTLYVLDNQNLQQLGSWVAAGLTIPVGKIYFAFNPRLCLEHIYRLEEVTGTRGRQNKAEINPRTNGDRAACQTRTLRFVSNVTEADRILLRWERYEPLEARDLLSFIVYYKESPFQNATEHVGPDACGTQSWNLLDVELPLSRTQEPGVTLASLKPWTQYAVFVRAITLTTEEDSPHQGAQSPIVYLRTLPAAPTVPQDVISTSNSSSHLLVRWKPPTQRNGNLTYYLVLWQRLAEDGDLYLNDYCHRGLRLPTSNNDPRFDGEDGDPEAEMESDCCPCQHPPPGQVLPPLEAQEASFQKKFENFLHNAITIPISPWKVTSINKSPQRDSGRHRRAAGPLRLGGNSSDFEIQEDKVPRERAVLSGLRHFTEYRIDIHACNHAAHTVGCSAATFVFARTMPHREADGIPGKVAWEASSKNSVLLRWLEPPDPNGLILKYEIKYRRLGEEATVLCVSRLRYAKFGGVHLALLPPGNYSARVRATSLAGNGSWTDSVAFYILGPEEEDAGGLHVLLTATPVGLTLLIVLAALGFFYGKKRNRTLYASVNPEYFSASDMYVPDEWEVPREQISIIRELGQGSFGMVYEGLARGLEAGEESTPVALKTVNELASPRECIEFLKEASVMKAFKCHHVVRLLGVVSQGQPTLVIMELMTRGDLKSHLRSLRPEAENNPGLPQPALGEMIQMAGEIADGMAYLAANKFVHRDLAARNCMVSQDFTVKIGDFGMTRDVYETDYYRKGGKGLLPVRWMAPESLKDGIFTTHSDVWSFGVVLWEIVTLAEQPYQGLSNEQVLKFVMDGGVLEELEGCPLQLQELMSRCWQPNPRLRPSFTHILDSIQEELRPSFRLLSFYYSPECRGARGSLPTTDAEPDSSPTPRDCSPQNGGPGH
UniProt Q9Y616: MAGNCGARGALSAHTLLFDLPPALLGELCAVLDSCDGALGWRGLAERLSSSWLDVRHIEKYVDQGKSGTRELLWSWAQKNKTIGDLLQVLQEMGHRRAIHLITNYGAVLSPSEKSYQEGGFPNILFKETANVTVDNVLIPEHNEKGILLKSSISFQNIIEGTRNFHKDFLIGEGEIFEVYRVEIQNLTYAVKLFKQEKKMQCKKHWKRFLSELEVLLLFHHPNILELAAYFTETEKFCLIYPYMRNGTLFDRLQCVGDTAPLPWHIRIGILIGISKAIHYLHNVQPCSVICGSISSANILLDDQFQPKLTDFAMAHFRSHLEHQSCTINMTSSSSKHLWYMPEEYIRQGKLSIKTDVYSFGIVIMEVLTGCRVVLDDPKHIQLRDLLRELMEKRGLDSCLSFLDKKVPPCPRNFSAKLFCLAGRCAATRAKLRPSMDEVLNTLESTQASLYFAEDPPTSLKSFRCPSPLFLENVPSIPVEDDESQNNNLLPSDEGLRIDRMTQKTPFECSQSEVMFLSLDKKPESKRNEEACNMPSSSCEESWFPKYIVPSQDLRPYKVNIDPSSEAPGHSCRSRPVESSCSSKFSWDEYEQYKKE
UniProt Q8IWU2: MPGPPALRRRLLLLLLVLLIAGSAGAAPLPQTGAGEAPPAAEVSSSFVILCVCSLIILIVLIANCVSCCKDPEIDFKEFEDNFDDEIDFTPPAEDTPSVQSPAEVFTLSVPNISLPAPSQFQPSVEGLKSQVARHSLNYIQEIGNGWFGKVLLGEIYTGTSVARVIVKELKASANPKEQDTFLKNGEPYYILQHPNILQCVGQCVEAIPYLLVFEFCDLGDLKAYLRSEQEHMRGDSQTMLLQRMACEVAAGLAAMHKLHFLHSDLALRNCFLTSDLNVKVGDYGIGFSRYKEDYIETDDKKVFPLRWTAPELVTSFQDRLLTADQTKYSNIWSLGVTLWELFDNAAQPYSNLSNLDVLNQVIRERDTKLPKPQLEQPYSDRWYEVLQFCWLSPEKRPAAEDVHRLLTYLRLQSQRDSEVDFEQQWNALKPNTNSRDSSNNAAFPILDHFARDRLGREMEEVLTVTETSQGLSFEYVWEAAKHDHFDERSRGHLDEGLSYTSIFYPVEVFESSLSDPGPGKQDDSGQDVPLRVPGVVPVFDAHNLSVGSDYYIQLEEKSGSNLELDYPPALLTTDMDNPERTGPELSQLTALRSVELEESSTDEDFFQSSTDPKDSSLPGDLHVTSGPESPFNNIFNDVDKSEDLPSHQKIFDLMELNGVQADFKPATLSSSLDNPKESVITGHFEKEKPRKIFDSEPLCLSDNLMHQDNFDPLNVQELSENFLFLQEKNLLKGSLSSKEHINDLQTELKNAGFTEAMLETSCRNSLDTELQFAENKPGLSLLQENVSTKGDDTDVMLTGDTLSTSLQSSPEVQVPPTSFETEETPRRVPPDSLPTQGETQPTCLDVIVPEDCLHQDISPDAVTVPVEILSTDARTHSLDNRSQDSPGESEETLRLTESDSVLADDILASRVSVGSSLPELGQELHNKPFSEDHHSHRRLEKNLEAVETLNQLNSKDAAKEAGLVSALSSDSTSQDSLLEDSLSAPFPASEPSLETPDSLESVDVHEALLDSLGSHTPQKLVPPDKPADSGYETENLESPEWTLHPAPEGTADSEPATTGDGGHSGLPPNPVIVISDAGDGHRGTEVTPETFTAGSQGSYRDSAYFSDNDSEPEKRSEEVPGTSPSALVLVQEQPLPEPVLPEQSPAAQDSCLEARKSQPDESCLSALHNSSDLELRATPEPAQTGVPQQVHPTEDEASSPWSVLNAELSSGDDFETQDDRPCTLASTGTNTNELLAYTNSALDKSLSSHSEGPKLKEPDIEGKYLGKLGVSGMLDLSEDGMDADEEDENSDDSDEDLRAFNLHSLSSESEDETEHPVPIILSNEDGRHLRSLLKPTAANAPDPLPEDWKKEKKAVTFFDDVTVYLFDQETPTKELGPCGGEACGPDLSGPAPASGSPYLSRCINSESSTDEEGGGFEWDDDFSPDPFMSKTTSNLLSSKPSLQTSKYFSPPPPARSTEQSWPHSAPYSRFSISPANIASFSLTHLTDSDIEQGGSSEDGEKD
UniProt P28482, whole entry: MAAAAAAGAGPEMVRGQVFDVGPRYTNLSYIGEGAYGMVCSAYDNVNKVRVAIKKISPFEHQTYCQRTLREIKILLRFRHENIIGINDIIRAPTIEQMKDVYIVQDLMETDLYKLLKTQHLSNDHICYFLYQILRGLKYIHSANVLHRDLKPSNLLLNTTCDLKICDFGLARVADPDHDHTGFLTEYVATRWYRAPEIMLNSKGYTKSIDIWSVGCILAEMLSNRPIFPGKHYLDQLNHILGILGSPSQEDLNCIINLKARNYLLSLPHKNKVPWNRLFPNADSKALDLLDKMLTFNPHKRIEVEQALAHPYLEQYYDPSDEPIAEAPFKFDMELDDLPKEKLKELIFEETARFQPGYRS
UniProt P31152, whole entry: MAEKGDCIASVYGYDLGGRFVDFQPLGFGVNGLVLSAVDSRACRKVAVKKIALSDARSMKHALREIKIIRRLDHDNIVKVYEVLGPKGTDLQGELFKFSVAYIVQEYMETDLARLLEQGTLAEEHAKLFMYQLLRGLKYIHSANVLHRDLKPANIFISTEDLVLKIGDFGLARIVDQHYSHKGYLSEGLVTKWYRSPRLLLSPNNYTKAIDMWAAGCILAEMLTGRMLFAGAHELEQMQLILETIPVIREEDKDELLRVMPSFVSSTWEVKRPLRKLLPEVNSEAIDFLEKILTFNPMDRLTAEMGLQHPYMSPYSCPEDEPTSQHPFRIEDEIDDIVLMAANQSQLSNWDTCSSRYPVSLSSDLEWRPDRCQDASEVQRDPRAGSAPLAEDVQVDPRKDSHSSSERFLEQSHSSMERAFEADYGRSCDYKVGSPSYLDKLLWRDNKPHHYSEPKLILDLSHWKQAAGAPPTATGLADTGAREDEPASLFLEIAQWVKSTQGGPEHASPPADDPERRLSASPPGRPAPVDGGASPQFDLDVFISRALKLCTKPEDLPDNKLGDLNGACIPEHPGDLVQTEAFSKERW
UniProt P49137, whole entry, looked up: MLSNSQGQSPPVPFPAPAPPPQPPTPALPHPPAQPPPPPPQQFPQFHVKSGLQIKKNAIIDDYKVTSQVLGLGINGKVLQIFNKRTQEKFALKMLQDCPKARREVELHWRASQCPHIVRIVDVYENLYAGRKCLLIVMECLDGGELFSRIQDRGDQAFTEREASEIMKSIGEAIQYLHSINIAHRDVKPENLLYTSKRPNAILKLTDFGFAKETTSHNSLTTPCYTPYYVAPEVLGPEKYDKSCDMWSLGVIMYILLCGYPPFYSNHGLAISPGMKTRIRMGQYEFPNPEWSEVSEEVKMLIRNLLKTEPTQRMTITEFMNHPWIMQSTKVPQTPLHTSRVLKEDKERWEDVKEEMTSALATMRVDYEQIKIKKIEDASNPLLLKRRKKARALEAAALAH
UniProt Q16620, whole entry, looked up: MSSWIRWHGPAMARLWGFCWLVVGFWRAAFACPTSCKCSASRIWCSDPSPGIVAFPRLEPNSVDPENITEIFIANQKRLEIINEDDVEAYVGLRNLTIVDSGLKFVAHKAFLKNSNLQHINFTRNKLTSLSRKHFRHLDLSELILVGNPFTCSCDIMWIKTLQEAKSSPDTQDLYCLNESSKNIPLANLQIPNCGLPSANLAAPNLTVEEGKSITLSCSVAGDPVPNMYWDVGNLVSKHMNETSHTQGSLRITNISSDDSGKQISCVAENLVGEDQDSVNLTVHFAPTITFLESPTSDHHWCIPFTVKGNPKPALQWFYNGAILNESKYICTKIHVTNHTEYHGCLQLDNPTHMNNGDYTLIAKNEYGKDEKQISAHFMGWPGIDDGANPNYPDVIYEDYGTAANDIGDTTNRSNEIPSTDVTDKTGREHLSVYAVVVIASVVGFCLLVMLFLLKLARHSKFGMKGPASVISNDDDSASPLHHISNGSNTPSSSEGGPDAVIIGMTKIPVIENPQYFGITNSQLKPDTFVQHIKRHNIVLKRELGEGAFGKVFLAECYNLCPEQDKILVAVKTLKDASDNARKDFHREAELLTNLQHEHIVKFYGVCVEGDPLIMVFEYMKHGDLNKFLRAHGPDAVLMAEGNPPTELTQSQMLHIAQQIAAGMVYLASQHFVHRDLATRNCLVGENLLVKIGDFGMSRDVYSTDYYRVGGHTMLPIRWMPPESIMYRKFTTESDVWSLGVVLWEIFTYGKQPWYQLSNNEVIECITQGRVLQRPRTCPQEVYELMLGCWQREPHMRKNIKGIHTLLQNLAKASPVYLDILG

Measured: number of time points

O=C(Nc1nccs1)C(c1cc(F)ccc1O)N1Cc2ccc(-c3ccc(N4CCNCC4)cc3)cc2C1=O (racemic) (10 µM)
2: [9]
1: [12] | [17]
0: all other assays above

CC(C)n1nc(C#Cc2ccccc2)c2c(N)ncnc21 (10 µM)
5: [2]
2: [5]
0: all other assays above

COc1cc(/C=C/c2ccc(NC(=O)/C=C/c3cc(OC)c(OC)c(OC)c3)cc2)cc(OC)c1 (2.5 µM)
0: all assays above

CC(C)=CCC/C(C)=C/CC/C(C)=C/CSc1ccccc1C(=O)O [Salirasib] (10 µM)
0: all assays above

COc1c(OCCCN2CCOCC2)ccc2c3n(c(=NC(=O)c4cnc(N)nc4)nc12)CCN3 [Copanlisib (dihydrochloride)] (10 µM)
1: [3] | [5] | [16] | [17]
4: [7] | [9] | [19]
2: [11] | [12]
3: [2] | [4] | [6] | [10]
0: all other assays above

O=S(=O)(N=Cc1c(O)ccc2ccccc12)c1cccs1 (10 µM)
0: all assays above

O=C1NCCSc2c1sc1ccc(O)cc21 (2.5 µM)
3: [1]
2: [2]
4: [11]
0: all other assays above

C=CC(=O)Nc1cccc(Nc2nc(Nc3ccc(Oc4ccnc(C(=O)NC)c4)cc3)ncc2F)c1 (2.5 µM)
1: [11] | [19]
0: all other assays above

CCCCCC1CC1CC1CC1CCCCCCCC(=O)O (stereo not given) (10 µM)
0: all assays above

CN(C/C=C/C(=O)Nc1ccc(C(=O)Nc2cccc(Nc3ncc(Cl)c(-c4c[nH]c5ccccc45)n3)c2)cc1)CCCNC(=O)NCCOCCOCCOCCNC(=O)CCCC[C@@H]1SC[C@@H]2NC(=O)N[C@@H]21 (2.5 µM)
2: [3] | [4] | [6] | [12] | [20]
1: [5] | [10]
0: all other assays above

CCCC[C@H](CO)Nc1nc(NC)ncc1OC [Interferon receptor inducer-1] (10 µM)
0: all assays above

N#C/C(=C\c1ccc[nH]1)c1ccc(Cl)c(Cl)c1 (2.5 µM)
0: all assays above

Ordered by molar mass (smallest number first): some entries from above
O=C1NCCSc2c1sc1ccc(O)cc21 (2.5 µM)
3: [1]
2: [2]
4: [11]
0: all other assays above

N#C/C(=C\c1ccc[nH]1)c1ccc(Cl)c(Cl)c1 (2.5 µM)
0: all assays above

C=CC(=O)Nc1cccc(Nc2nc(Nc3ccc(Oc4ccnc(C(=O)NC)c4)cc3)ncc2F)c1 (2.5 µM)
1: [11] | [19]
0: all other assays above

O=C(Nc1nccs1)C(c1cc(F)ccc1O)N1Cc2ccc(-c3ccc(N4CCNCC4)cc3)cc2C1=O (racemic) (10 µM)
2: [9]
1: [12] | [17]
0: all other assays above

(list continues)

Cc1ccc(Nc2c(C(N)=O)cnc3cc(-c4ccncc4)ccc23)cc1C [cFMS Receptor Inhibitor II] (10 µM)
0: all assays above

COc1ccc(COc2cc3oc(=O)c4cc(C(C)O)ccc4c3cc2OC)cc1 (stereo not given) [Palomid 529] (2.5 µM)
0: all assays above

C=CCN(/C=C1/C(=O)O[C@H](COC)[C@@]2(C)C1=C(O)C(=O)C1=C2[C@H](OC(C)=O)C[C@]2(C)C(=O)CC[C@@H]12)CC=C [Sonolisib] (2.5 µM)
3: [2] | [4]
1: [7] | [10]
0: all other assays above

C=C[C@H]1[C@H](O[C@@H]2O[C@H](CO)[C@@H](O)[C@H](O)[C@H]2O)OC=C(C(=O)OC)[C@H]1CCOC(=O)c1cc(O)c(O)c(O)c1 [Cornuside] (10 µM)
0: all assays above

CC[C@H](C)[C@H](NC(=O)[C@H](CCCCN)NC(=O)[C@H](CC(C)C)NC(=O)[C@@H]1CCCN1C(=O)[C@H](CCC(=O)O)NC(=O)[C@H](Cc1ccc(O)cc1)NC(=O)[C@@H](NC(=O)[C@H](CO)NC(=O)CNC(=O)[C@H](CO)NC(=O)[C@H](CCCN=C(N)N)NC(=O)[C@H](CCCCN)NC(=O)[C@@H](NC(=O)[C@@H](N)CCCN=C(N)N)[C@@H](C)O)C(C)C)C(=O)O [Malantide] (10 µM)
0: all assays above

COc1ccc(S(=O)(=O)N(CCO)c2ccccc2CN(C)CC=Cc2ccc(Cl)cc2)cc1 (2.5 µM)
1: [10]
0: all other assays above

O=S(=O)(c1cccc2c(Cl)cccc12)N1CCCNCC1 (10 µM)
0: all assays above

COc1ccc(F)cc1C(=O)NCc1ccc(-c2nn([C@@H](C)C(F)(F)F)c(N)c2C(N)=O)cc1 [Pirtobrutinib] (10 µM)
0: all assays above

CC(C)n1cnnc1-c1cccc(NC(=O)c2cc3ccc(F)cc3[nH]2)n1 (2.5 µM)
3: [1] | [2] | [4] | [5] | [6] | [7] | [9] | [11] | [19]
1: [20]
0: all other assays above

Reference: the supplement of paper PMC12823440, “Inhibitors supercharge kinase turnover through native proteolytic circuits” (Nature, 2025)
